Publication PMC5584168

Chains of the proteins cited; added tags and fusions are not shown. Lines headed by an entry give the natural chain unless they say otherwise; changes in a name come on top.
UniProt P38200: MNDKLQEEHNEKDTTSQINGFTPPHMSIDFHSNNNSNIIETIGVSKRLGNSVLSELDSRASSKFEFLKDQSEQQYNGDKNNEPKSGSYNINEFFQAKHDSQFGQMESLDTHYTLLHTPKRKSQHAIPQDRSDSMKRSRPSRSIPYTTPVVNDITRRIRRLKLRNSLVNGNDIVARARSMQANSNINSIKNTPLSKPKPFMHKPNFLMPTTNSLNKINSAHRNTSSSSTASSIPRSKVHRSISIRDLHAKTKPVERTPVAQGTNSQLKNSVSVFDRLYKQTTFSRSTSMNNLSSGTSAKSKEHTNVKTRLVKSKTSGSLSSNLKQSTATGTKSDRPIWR

Target: T1, GST-Sli15 (S. cerevisiae) (UniProt P38283)
T1 sequence: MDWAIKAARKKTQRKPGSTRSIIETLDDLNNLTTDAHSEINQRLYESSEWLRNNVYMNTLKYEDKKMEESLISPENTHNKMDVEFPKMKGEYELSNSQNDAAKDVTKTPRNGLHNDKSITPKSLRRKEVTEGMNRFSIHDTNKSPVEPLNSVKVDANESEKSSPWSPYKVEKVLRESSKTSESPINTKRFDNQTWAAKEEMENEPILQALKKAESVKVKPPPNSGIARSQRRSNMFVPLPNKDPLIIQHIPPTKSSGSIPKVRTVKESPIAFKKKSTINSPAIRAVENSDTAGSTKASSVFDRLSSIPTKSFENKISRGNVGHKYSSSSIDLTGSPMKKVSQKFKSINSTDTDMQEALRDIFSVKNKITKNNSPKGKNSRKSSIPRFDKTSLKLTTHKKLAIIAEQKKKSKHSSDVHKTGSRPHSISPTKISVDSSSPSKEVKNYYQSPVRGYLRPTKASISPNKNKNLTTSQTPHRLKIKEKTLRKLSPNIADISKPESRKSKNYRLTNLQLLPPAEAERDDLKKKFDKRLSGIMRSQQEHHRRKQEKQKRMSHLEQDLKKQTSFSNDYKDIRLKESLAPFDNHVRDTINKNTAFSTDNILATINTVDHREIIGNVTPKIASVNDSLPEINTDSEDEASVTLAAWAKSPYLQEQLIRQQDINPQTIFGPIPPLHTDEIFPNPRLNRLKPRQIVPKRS
Assay: pull-down; GST-Sli15 immobilized on glutathione beads incubated with yeast extract, 4°C, 45 min, yeast lysis buffer (20 mM Tris pH 7.5, 100 mM NaCl, 1 mM DTT, 0.1% Triton X-100, 1 mM EDTA); anti-c-Myc Western blot; only the target purified

- binding: binds
Substance: she1-ΔN126-13myc (from UniProt P38200) (domain or fragment)

Results are given in words; binding and its absence hold for the method and conditions named. In cells and extracts the contact can be indirect. Binding calls can cover weak binding; strength is not graded here. Tags and fused reporters may be left off the sequences shown.
